Measurements published in PubChem BioAssay AID1671190 (National Center for Advancing Translational Sciences (NCATS), 2021).
Out of some 580,000 compounds screened, about 6,100 (1.1%) were called active. Inconclusive means that the source gave no clear call. Such entries were picked first, then a sample of the others. The call rests on the fitted dose curve; in most records, active means well fitted inhibition curve with a large enough effect; inconclusive means small, poorly fitted or top-dose-only effect, or another doubt; inactive means no such curve, though single readings can be large or run the other way. Where the call is inconclusive, the potency comes from a doubtful curve fit.

Chains of the proteins cited; added tags and fusions are not shown. Lines headed by an entry give the natural chain unless they say otherwise; changes in a name come on top.
UniProt P18054: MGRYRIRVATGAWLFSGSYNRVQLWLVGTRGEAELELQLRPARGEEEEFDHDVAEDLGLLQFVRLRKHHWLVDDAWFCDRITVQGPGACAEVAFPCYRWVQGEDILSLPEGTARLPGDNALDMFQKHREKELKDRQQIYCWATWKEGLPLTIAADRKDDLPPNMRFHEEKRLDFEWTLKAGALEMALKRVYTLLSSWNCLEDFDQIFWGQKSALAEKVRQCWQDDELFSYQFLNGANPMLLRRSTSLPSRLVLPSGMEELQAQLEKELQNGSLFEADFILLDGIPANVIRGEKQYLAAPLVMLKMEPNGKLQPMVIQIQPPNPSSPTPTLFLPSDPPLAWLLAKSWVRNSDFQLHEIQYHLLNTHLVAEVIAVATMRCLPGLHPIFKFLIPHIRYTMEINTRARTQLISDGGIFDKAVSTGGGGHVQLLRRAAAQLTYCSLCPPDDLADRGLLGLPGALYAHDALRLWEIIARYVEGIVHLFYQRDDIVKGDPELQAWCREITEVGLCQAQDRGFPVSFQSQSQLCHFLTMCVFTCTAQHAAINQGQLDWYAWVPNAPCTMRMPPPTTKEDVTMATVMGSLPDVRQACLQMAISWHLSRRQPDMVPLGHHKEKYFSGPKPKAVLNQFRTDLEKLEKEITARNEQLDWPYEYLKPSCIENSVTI

What follows are compounds tested against Polyunsaturated fatty acid lipoxygenase ALOX12 (Homo sapiens) (UniProt P18054) (assay: Primary qHTS assay for inhibitors of human arachidonate 12S-lipoxygenase (ALOX12): Round 2). Conditions: purified 12hLO, xylenol orange hydroperoxide absorbance; activity change, negative = inhibition: at 108 µM (top of the series).
How it was run: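 Purified human 12hLO (150 nM final) in 25 mM Hepes, 0.01% Triton X-100, pH 7.0 was preincubated 15 min at room temperature with compound. Then 40 uM arachidonic acid was added, 30 min. Hydroperoxide was read by Fe-XO absorbance ratio 573/405 nm.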
On the % scale 0 is the no-effect control and ±100 the full control effect; potency means the concentration at half of the fitted maximal effect.

Row | Structure (SMILES) | Potency | activity change, negative = inhibition
1 | O=C1NC(=O)N(c2ccccc2)C(=O)/C1=C/c1coc2ccc(O)cc2c1=O | active: 44.7 µM | –
2 | O=S(=O)(O)C(F)(F)C(F)(F)C(F)(F)C(F)(F)C(F)(F)C(F)(F)C(F)(F)C(F)(F)F | inconclusive: 7.37 µM [inhibitor, full curve] | –
3 | COc1ccc(NC(=O)NC[C@H]2C[C@@H]3CCN2C[C@@H]3CN2CCN(c3ncccn3)CC2)cc1 | inconclusive: 3.98 µM [inhibitor, partial curve, poor fit] | –
4 | O=c1c2ccccc2nc(/C=C/c2ccco2)n1-c1ccccc1 | inconclusive: 3.98 µM [inhibitor, full curve, poor fit] | –
5 | CCCC[N+]12CCC(CC1)C(C(=O)c1cccs1)C2 (stereo not drawn) | inconclusive: 31.6 µM [inhibitor, partial curve, poor fit] | –
6 | CCOP(=O)(Nc1ccc2c(c1)C(=NNC(N)=S)c1ccccc1-2)OCC | active: 22.4 µM | –
7 | O=C1Nc2cc(Cl)c(Cl)cc2N2CCNC[C@H]12 | inconclusive: 79.4 µM [inhibitor, single point] | –
8 | Cc1ccccc1C(=O)N1Cc2ccccc2-n2nncc2C1 | – | inconclusive: -32.4% [inhibitor]
9 | COc1cc(C=C2C(=O)NC(=O)NC2=O)ccc1OS(=O)(=O)c1ccccc1[N+](=O)[O-] | inconclusive: 44.7 µM [inhibitor, partial curve, poor fit] | –
10 | N[C@H](Cc1o[nH]c(=O)c1Cl)C(=O)O | inconclusive: 0.891 µM [inhibitor, full curve, poor fit] | –
11 | C[C@]12CC[C@@H]3c4ccc(OC(=O)N(CCCl)CCCl)cc4CC[C@H]3[C@@H]1CC[C@@H]2OP(=O)(O)O | active: 21.7 µM | –
12 | COc1ccc(CNCCc2ccc3c(c2)OCO3)c(OC)c1OC | inconclusive: 6.31 µM [inhibitor, partial curve, poor fit] | –
13 | CCOc1cc(CNCCc2c[nH]c3ccccc23)cc(Cl)c1OC | inconclusive: 79.4 µM [inhibitor, single point] | –
14 | CN(C)CCc1c[nH]c2cccc(O)c12 | – | inactive: 18% [at 176 µM]
15 | CCOC(=O)C1(c2ccccc2)CCN(CCC(=O)Nc2cccc(Br)c2)CC1 | active: 20 µM | –
16 | CNC(=S)N1CCn2cccc2C1c1cccnc1 (stereo not drawn) | – | inactive: -3.19%
17 | CC1OC(OC2CCC3(C=O)[C@H]4CCC5(C)C(C6=CC(=O)OC6)CCC5(O)[C@@H]4CCC3(O)C2)CC2OC(C)(C)OC12 (stereo partly drawn) | – | inactive: 19%
18 | Cc1cccc(N2C(=O)NC(=O)/C(=C\C=C\c3ccco3)C2=O)c1 | inconclusive: 126 µM [inhibitor, single point] | –
19 | O=C1CN=C(c2cccs2)c2c(sc3c2CCCC3)N1 | – | inactive: 0%
20 | c1ccc(CCNCc2cccs2)cc1 | inconclusive: 112 µM [inhibitor, single point] | –
21 | O=C(CN1CCN(C(=O)COc2cccc(F)c2)CC1)Nc1ccc(Cl)c(C(F)(F)F)c1 | inconclusive: 112 µM [inhibitor, partial curve, poor fit] | –
22 | O=c1ccc2cc(O[C@@H]3O[C@H](CO)[C@@H](O)[C@H](O)[C@H]3O)c(O)cc2o1 | inactive | –

Full records, looked up by structure:
O=C(CN1CCN(C(=O)COc2cccc(F)c2)CC1)Nc1ccc(Cl)c(C(F)(F)F)c1 in the list: Potency: inconclusive: 112 µM [inhibitor, partial curve, poor fit]
O=C1CN=C(c2cccs2)c2c(sc3c2CCCC3)N1 in the list: activity change, negative = inhibition: inactive: 0%

Later entries.

Row | Structure (SMILES) | Potency | activity change, negative = inhibition
23 | COC(=O)C1=C(c2ccc(OC(F)(F)F)cc2)C[C@@H]2CC[C@H]1N2C(=O)NCC1CC1 | – | inactive: 2.93%
24 | O=C(COc1ccccc1)N1CCN(C2CCCC2)CC1 | inconclusive: 0.355 µM [inhibitor, full curve, poor fit] | –
25 | O=C(CCN1CC2CCC(CC2)C1)c1cccs1 | – | inactive: -11.5%
26 | C1=C(c2c[nH]c3ccccc23)CCN(Cc2ccccc2)C1 | inconclusive: 50.1 µM [inhibitor, partial curve, poor fit] | –
27 | c1ccc2c(CN3CCCCC3)c[nH]c2c1 | inconclusive: 100 µM [inhibitor, partial curve, poor fit] | –
28 | O=C(Nc1ccc(=O)n2c1[C@@H]1C[C@@H](CN(C(=O)c3ccc(F)cc3)C1)C2)C1CCCCC1 | inconclusive: 20 µM [inhibitor, full curve, poor fit] | –
29 | CCOC(=O)[C@]12Cc3ccccc3[C@H]1N(CCC(=O)OC)C(=O)c1cc(OC)ccc12 | inconclusive: 35.5 µM [inhibitor, partial curve, poor fit] | –
30 | COC(=O)C1=C(c2c(C)noc2C)C[C@@H]2CC[C@H]1N2C(=O)NCC1CC1 | inconclusive: 112 µM [inhibitor, single point] | –
31 | CN(C)C(=O)Oc1c(Cl)cc(Cl)c2cccnc12 | – | inactive: 1.24%
32 | COc1ccc(-c2cn(C[C@H]3CC4CCN3C[C@@H]4C(=O)NCc3ccc4c(c3)OCO4)nn2)cc1 (stereo partly drawn) | inconclusive: 20 µM [inhibitor, full curve] | –
33 | Cc1ccc(N2C(=O)CC(=O)NC2=O)cc1Cl | inconclusive: 17.8 µM [inhibitor, full curve] | –
34 | O=C(Oc1c(Cl)cc(Cl)c2ccccc12)N1CCCCC1 | inconclusive: 0.708 µM [inhibitor, full curve, poor fit] | –
35 | O=C(Cn1ncc2c3ccccc3n(Cc3ccccc3F)c2c1=O)N1CCC2(CC1)OCCO2 | – | inactive: 15.7%
36 | COC(=O)c1ccc(CBr)cc1 | inconclusive: 56.2 µM [inhibitor, partial curve, poor fit] | –
37 | O=C1c2ccccc2-c2cccc3cccc1c23 | – | inconclusive: -34.2% [inhibitor]
38 | COC(=O)C1=Nc2ccccc2/C1=C\c1c(O)n(-c2ccc(Br)cc2)c(=O)[nH]c1=O | active: 35.5 µM | –
39 | O=c1[nH]c(=S)n(C2CCCCC2)c(O)c1/C=N/N1CCOCC1 | inconclusive: 100 µM [inhibitor, single point] | –
40 | Cc1sc2c(c1C)C(c1ccc(F)cc1)=NCC(=O)N2CC(=O)Nc1ccc(F)cc1F | inconclusive: 39.8 µM [inhibitor, partial curve] | –
41 | CNCC/C=C/c1cccnc1 | inconclusive: 4.47 µM [inhibitor, full curve, poor fit] | –
42 | Cc1ccnc(-n2c(C)cc(C=C3C(=O)N(C)C(=S)N(C)C3=O)c2C)c1 | inconclusive: 56.2 µM [inhibitor, partial curve] | –
43 | O=C(Cn1cc(C(=O)c2ccccc2)c2ccccc21)Nc1ccc(Br)cc1 | – | inactive: -17.6%
